Test: Direct influence of CCCP and Nigericin on emission spectrum, polarization and lifetime of Rh123 in suspension
Details: Rh123 0.5 μg/ml suspension, no cells; CCCP 5 μM or Nigericin 5 μg/ml
Experimental: A suspension of Rh123 at a concentration of 0.5 μg/ml was prepared. The suspension was divided into three aliquots, each containing a volume of 1 ml. To the first part was added 2.5 μl of PBS. To the second part was added 2.5 μl CCCP at a concentration of 2 mM, so that a final concentration of 5 μM CCCP was reached. To the third part was added 2.5 μl of Nigericin, at a concentration of 2 mg/ml, so that a final concentration of 5 μg/ml Nigericin was reached.
In the first stage, the emission spectrum of the suspension was obtained, using CARY ECLIPSE. The suspensions were excited with 480 nm light and the fluorescence was measured between 500-600 nm, while the slits (emission and excitation) were 2.5 nm.
The direct influence of CCCP and/or Nigericin were tested on the same suspensions of Rh123, measuring the lifetimes in contrast to the control.

Compound	P (polarization of Rh123 in suspension)	τ (lifetime of Rh123 in suspension) [nsec]
N#CC(C#N)=NNc1cccc(Cl)c1 [CCCP]	0.053 ± 0.001	4.241 ± 0.002
CO[C@@H]1C[C@@H](C[C@H]2CC[C@H](C)[C@H]([C@@H](C)C(=O)O)O2)O[C@]2(O[C@](C)([C@H]3CC[C@@](C)([C@@H]4O[C@@H]([C@H]5O[C@@](O)(CO)[C@H](C)C[C@@H]5C)C[C@@H]4C)O3)C[C@H]2C)[C@@H]1C [Nigericin]	0.056 ± 0.002	4.242 ± 0.004

From patent publication US20100274500A1, “METHOD AND SYSTEM FOR MEASURING MEMBRANE POTENTIAL BASED ON FLUORESCENCE POLARIZATION” (Seng Enterprises Ltd., priority 2006, published 2010)
